This is an account of results in US20070031511A1, “Method of treatment” (priority 2003, published 2007).

This data set in a line: Quenching of peptide tryptophan fluorescence by ferric ions (stoichiometry, apparent Kd). Type of data set: binding. The settings on record: 10 mM sodium acetate pH 4.0, 100 mM NaCl, 0.005% Tween 20; mean ± S.E. The method, then:
The tryptophan fluorescence of peptide solutions was measured in 3 mL quartz cuvettes thermostated at […], with a Spex Fluorolog-2 spectrofluorimeter (Spex Industries, Edison, N.J.), with the excitation and emission wavelengths set at 290 and 345 nm, respectively. The quenching of tryptophan fluorescence induced by the binding of metal ions was used to calculate the fraction of binding sites occupied, fa: fa=(yf−y)/(yf−yb) where y is the fluorescence signal at a given concentration of metal ions and yb and yf are the signals when the binding sites are fully occupied and unoccupied, respectively (Winzor et al, 1995). […]
The tryptophan fluorescence of progastrin6-80, glycine-extended gastrin17 and related peptides was measured in the presence of increasing concentrations of ferric ions in 10 mM sodium acetate, pH 4.0, 100 mM NaCl, 0.005% Tween 20. […]
The tryptophan fluorescence of amidated gastrin17 and related peptides was measured in the presence of increasing concentrations of ferric ions at pH 4.0 (8). […]

B1: Progastrin: recombinant human progastrin6-80 (protein, listed as Homo sapiens)
chain: SQQPDAPLGTGANRDLELPWLEQQGPASHHRRQLGPQGPPHLVADPSKKQGPWLEEEEEAYGWMDFGRRSAEDEN
As for B1, the “Stoichiometry of ferric ion binding” value came out at 2.48 ± 0.13.
